Assay results published in patent US10966996B2, “Glechoma longitube extract, preparation method for same, and use thereof in sugar reduction, weight loss, and lipid reduction” (SHANGHAI INSTITUTE OF MATERIA MEDICA CHINESE ACADEMY OF …, priority 2014, dated 2021).
Some of these results come from one statement about several compounds together.

Target: T1, porcine pancrelipase (Sus scrofa, UniProt P00591)
T1 construct: purchased Sigma
T1 sequence (P00591 1-450): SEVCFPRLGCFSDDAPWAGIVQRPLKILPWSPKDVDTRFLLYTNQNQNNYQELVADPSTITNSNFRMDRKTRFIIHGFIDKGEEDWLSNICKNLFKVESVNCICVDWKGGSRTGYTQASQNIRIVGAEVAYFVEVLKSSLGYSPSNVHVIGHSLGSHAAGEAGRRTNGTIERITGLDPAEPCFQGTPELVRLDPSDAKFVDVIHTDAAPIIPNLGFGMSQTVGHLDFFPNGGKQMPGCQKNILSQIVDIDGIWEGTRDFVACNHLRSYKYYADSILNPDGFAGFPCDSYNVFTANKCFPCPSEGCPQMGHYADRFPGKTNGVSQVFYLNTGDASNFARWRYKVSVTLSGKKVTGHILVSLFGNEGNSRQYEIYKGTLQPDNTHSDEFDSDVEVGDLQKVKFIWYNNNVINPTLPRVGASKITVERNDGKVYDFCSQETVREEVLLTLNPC
Test: inhibitory activity against pancrelipase (p-Nitrophenyl acetate substrate)
Format: biochemical
Details: at the same concentration
Source text: OD compound, OD blank, and OD negative control represented the fluorescence values from a compound well, a blank well, and a negative control well free of DGAT1 enzyme, and the concentrations of the compounds when the enzyme activity inhibition rate (%) reached 50% were set as IC50 value; (3) inhibitory activity of the individual compounds separated from the extract of Glechoma longituba (Nakai) Kupr., LQC-H-1, against pancrelipase: substrate p-Nitrophenyl acetate (Sigma, USA) was formulated to 1.35 mM with phosphate buffer (25 mM, pH 6.8); porcine pancrelipase (Sigma) was formulated to 10 mg/ml with phosphate buffer; brominated eneyne compounds were formulated to solutions of different concentrations with phosphate buffer. Then, 50 μl of 1.35 mM p-Nitrophenyl acetate (Sigma, USA) solution and 10 μl of test compounds of different concentrations were sequentially added into a 96-well plate and pre-incubated at 37° C. for 5 mins. Finally, 50 μl of 10 mg/ml pancrelipase (EC 3.1.1.3, Sigma, USA) was added and mixed. The reaction proceeded at 37° C. for further 20 mins Absorbance of each well was measured at 492 nm. […]
In the above formula, A, B, C, and D represented the absorbance of a blank well after the reaction, the absorbance of a blank well prior to the reaction, the absorbance of a sample well after the reaction, and the absorbance of a sample well prior to the reaction.

Row | Compound | inhibition rates for pancrelipase
1 | O=C(O)C1O[C@@H](OC2C(O)[C@H](O)C(C(=O)O)O[C@H]2Oc2cc(O)c3c(=O)cc(-c4ccc(O)c(O)c4)oc3c2)C(O)C(O)[C@@H]1O (stereo partly drawn) [Compound I, luteolin-7-O-[β-glucuronosyl(1→2)β-glucuronic acid]] | more than 40%
2 | O=C(O)C1O[C@@H](OC2C(O)[C@H](O)C(C(=O)O)O[C@H]2Oc2cc(O)c3c(=O)cc(-c4ccc(O)cc4)oc3c2)C(O)C(O)[C@@H]1O (stereo partly drawn) [Compound II, apigenin-7-O-[β-glucuronosyl(1→2)β-glucuronic acid]] | more than 40%
